No constants are given. Whether binding was seen depends on the method and setting. Some results given as binding are weak or reduced against the parent protein; the word gives no strength.
Molecular target: free PSMD2 (in the erythrocyte proteasome preparation) (human (endogenous in erythrocytes)) (UniProt Q13200)
Assay: native gel or EMSA

Protein sequences, listed by entry. Tags and fused reporters are not part of them.
UniProt Q13200: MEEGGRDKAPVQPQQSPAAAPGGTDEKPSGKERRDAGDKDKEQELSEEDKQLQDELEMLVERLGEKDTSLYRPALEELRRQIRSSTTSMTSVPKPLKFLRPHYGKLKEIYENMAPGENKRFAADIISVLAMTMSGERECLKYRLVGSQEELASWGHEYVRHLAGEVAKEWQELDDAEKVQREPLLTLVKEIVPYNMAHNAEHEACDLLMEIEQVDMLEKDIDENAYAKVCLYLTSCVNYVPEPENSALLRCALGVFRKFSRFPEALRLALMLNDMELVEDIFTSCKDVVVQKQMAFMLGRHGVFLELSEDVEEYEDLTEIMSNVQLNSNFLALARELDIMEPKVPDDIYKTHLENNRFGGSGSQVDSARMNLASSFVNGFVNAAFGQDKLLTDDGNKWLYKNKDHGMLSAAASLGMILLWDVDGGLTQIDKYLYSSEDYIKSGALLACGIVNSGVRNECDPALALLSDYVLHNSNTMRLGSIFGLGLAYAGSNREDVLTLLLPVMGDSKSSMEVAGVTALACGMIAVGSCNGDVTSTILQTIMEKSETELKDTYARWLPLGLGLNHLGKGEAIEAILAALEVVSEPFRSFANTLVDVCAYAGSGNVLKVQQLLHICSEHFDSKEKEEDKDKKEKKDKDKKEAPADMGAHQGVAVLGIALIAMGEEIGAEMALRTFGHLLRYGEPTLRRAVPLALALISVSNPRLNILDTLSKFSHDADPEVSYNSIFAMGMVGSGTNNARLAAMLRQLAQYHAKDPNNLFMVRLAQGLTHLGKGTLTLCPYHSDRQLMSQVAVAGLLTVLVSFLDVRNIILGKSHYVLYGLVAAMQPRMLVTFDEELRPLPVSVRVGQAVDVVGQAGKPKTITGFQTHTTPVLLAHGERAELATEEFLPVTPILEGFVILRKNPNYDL

Row | binding | Binder
1 | binds | recombinant full-length USP15 (enzyme, UniProt Q9Y4E8 1-981) MAEGGAADLDTQRSDIATLLKTSLRKGDTWYLVDSRWFKQWKKYVGFDSWDKYQMGDQNVYPGPIDNSGLLKDGDAQSLKEHLIDELDYILLPTEGWNKLVSWYTLMEGQEPIARKVVEQGMFVKHCKVEVYLTELKLCENGNMNNVVTRRFSKADTIDTIEKEIRKIFSIPDEKETRLWNKYMSNTFEPLNKPDSTIQDAGLYQGQVLVIEQKNEDGTWPRGPSTPKSPGASNFSTLPKISPSSLSNNYNNMNNRNVKNSNYCLPSYTAYKNYDYSEPGRNNEQPGLCGLSNLGNTCFMNSAIQCLSNTPPLTEYFLNDKYQEELNFDNPLGMRGEIAKSYAELIKQMWSGKFSYVTPRAFKTQVGRFAPQFSGYQQQDCQELLAFLLDGLHEDLNRIRKKPYIQLKDADGRPDKVVAEEAWENHLKRNDSIIVDIFHGLFKSTLVCPECAKISVTFDPFCYLTLPLPMKKERTLEVYLVRMDPLTKPMQYKVVVPKIGNILDLCTALSALSGIPADKMIVTDIYNHRFHRIFAMDENLSSIMERDDIYVFEININRTEDTEHVIIPVCLREKFRHSSYTHHTGSSLFGQPFLMAVPRNNTEDKLYNLLLLRMCRYVKISTETEETEGSLHCCKDQNINGNGPNGIHEEGSPSEMETDEPDDESSQDQELPSENENSQSEDSVGGDNDSENGLCTEDTCKGQLTGHKKRLFTFQFNNLGNTDINYIKDDTRHIRFDDRQLRLDERSFLALDWDPDLKKRYFDENAAEDFEKHESVEYKPPKKPFVKLKDCIELFTTKEKLGAEDPWYCPNCKEHQQATKKLDLWSLPPVLVVHLKRFSYSRYMRDKLDTLVDFPINDLDMSEFLINPNAGPCRYNLIAVSNHYGGMGGGHYTAFAKNKDDGKWYYFDDSSVSTASEDQIVSKAAYVLFYQRQDTFSGTGFFPLDRETKGASAATGIPLESDEDSNDNDNDIENENCMHTN
2 | binds | USP15 catalytic USP domain (domain or fragment, UniProt Q9Y4E8 289-933) CGLSNLGNTCFMNSAIQCLSNTPPLTEYFLNDKYQEELNFDNPLGMRGEIAKSYAELIKQMWSGKFSYVTPRAFKTQVGRFAPQFSGYQQQDCQELLAFLLDGLHEDLNRIRKKPYIQLKDADGRPDKVVAEEAWENHLKRNDSIIVDIFHGLFKSTLVCPECAKISVTFDPFCYLTLPLPMKKERTLEVYLVRMDPLTKPMQYKVVVPKIGNILDLCTALSALSGIPADKMIVTDIYNHRFHRIFAMDENLSSIMERDDIYVFEININRTEDTEHVIIPVCLREKFRHSSYTHHTGSSLFGQPFLMAVPRNNTEDKLYNLLLLRMCRYVKISTETEETEGSLHCCKDQNINGNGPNGIHEEGSPSEMETDEPDDESSQDQELPSENENSQSEDSVGGDNDSENGLCTEDTCKGQLTGHKKRLFTFQFNNLGNTDINYIKDDTRHIRFDDRQLRLDERSFLALDWDPDLKKRYFDENAAEDFEKHESVEYKPPKKPFVKLKDCIELFTTKEKLGAEDPWYCPNCKEHQQATKKLDLWSLPPVLVVHLKRFSYSRYMRDKLDTLVDFPINDLDMSEFLINPNAGPCRYNLIAVSNHYGGMGGGHYTAFAKNKDDGKWYYFDDSSVSTASEDQIVSKAAYVLFYQRQ
